PMC5346764
These are yes or no findings as the source states them, for the method shown. Binding seen in cells or lysates may run through a third protein. Some entries that bind do so weakly or less than the wild type.

Amino acid sequences for entries named in this document (tags omitted).
UniProt O43663: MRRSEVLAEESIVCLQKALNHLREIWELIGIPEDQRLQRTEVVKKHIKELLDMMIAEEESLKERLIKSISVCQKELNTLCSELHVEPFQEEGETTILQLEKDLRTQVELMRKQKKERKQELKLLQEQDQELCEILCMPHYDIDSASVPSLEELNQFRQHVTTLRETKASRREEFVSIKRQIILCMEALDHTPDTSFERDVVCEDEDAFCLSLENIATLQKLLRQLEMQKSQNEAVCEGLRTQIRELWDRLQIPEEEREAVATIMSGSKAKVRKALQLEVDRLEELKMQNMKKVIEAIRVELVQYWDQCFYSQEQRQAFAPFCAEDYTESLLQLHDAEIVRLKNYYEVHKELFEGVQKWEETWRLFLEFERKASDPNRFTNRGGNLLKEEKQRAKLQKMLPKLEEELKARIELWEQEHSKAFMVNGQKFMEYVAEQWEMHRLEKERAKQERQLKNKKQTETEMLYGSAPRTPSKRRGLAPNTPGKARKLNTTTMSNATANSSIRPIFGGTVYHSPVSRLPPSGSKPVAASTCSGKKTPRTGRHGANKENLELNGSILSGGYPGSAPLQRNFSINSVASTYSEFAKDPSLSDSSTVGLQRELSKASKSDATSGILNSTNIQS
UniProt Q02224: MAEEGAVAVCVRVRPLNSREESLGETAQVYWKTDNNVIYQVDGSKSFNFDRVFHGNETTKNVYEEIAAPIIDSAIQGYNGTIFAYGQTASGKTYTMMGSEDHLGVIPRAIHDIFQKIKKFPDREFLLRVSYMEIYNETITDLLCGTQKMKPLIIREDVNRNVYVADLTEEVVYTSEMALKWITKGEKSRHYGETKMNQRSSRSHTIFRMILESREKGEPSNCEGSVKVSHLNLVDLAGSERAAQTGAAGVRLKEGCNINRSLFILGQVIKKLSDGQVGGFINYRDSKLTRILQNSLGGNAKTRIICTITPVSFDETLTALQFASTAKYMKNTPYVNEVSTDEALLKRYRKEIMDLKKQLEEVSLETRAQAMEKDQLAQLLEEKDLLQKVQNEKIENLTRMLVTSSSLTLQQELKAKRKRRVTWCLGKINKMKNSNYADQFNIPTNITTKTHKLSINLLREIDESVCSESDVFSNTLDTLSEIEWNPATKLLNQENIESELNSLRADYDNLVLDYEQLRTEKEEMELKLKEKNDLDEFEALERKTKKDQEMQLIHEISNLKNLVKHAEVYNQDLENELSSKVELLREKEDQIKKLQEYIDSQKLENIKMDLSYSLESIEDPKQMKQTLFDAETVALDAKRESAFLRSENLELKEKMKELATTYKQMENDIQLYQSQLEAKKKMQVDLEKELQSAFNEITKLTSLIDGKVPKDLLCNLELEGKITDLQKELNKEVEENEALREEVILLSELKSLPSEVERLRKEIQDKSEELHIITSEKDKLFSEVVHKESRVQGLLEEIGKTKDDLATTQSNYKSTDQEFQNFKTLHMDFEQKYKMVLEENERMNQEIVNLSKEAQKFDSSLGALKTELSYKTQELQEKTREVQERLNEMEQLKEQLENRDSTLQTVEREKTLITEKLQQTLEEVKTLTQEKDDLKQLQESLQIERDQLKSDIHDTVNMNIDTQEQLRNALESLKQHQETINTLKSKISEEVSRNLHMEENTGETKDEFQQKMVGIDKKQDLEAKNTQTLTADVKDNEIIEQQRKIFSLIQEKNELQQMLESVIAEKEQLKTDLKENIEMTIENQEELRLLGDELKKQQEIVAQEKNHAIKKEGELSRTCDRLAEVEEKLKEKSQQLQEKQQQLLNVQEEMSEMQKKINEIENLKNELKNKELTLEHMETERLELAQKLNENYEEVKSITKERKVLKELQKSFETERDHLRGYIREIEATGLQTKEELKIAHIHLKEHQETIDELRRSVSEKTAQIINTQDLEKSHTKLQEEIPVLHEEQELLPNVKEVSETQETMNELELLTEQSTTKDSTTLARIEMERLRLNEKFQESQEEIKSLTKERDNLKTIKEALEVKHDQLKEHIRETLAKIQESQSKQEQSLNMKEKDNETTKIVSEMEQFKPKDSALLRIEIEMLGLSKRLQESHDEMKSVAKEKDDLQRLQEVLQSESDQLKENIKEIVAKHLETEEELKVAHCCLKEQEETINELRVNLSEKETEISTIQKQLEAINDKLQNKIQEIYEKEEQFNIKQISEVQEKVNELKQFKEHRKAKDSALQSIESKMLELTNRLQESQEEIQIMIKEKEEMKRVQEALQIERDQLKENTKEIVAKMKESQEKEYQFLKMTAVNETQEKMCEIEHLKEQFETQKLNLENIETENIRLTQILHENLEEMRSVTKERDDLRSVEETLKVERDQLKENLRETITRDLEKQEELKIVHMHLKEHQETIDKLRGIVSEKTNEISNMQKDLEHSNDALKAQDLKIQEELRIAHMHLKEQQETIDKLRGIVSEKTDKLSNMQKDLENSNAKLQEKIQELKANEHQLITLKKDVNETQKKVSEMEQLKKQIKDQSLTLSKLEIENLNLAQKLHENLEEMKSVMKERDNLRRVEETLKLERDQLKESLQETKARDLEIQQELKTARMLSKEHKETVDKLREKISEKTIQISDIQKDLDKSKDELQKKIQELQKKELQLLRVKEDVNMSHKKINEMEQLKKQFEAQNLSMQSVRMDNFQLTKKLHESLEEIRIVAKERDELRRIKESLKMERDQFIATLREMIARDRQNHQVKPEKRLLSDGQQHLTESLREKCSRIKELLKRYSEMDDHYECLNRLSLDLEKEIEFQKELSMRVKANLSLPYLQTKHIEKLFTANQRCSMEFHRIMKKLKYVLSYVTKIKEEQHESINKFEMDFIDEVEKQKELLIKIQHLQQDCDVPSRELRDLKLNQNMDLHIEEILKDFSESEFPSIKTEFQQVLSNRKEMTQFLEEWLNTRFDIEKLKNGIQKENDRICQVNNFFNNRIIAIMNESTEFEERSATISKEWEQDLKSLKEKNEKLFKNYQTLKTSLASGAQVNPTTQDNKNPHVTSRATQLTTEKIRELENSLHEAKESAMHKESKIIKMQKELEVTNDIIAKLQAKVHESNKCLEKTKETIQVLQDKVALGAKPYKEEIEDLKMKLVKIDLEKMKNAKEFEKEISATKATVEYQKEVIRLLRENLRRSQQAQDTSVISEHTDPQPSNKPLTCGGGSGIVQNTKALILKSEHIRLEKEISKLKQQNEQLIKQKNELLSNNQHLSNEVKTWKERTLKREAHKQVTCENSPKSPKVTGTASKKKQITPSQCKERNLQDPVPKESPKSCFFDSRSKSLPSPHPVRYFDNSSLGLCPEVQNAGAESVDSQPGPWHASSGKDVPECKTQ

Molecular target: recombinant GST-tagged full-length PRC1 (UniProt O43663)
Assay: pull-down; GST pull-down: GST-tagged PRC1 as bait, 293T cell lysate, with or without added microtubules; immunoblot with anti-CENP-E, anti-GST or anti-alpha-tubulin; only the target purified

Q: “endogenous centromere-associated protein-E (CENP-E) (from UniProt Q02224 1-2701)” was tested. Which binding did it give?
A: binds
